PubChem BioAssay AID504784 | Drosophila RNAi Screening Center, 2011

Purpose: 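Search for regulators of lipid droplet storage in oleate-fed fly cells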 (primary screen)
Cells: Drosophila Kc167 embryonic cells
Reagents: long dsRNA against Drosophila genes, about 250 ng dsRNA per well
Time to read-out: 4 days
Treatment: cells fed 400 µM oleic acid bound to BSA
Read-out: 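Microscope images give a droplet-to-nucleus area ratio, taken as log and converted to a screen-wide B-score; higher values mean greater lipid storage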
Direction: droplet/nuclear area B-score: higher = more stored lipid (overstorage)
In all, the deposit lists about 17,000 reagents; shown is an unselected part of those that have a named target and a result. 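Each column is one replicate's B-score; the combined score over replicates was not deposited, so single values may mislead.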 A plus sign joins genes that one reagent is predicted to hit. Further read-outs or replicates are left out here.

Ser8 [DRSC06891]
- droplet/nuclear area B-score, replicate 1: 0.496

CG12288 [DRSC02155]
- droplet/nuclear area B-score, replicate 1: -0.203

fng [DRSC11455]
- droplet/nuclear area B-score, replicate 1: -0.588

fng [DRSC11887]
- droplet/nuclear area B-score, replicate 1: 1.35

fng [DRSC21935]
- droplet/nuclear area B-score, replicate 1: -0.0256

CG8858 [DRSC07290]
- droplet/nuclear area B-score, replicate 1: 0.878

Atg9 [DRSC06848]
- droplet/nuclear area B-score, replicate 1: 0.065

CG3746 [DRSC04412]
- droplet/nuclear area B-score, replicate 1: -1.93

bai [DRSC14388]
- droplet/nuclear area B-score, replicate 1: -1.5

Rap1 [DRSC08686]
- droplet/nuclear area B-score, replicate 1: 0.0593

CG31926 [DRSC00295]
- droplet/nuclear area B-score, replicate 1: 0.0108

LSm3 [DRSC15920]
- droplet/nuclear area B-score, replicate 1: 0.0457

bap [DRSC16908]
- droplet/nuclear area B-score, replicate 1: -0.619

Alg9 [DRSC14407]
- droplet/nuclear area B-score, replicate 1: -0.6

Rich [DRSC11607]
- droplet/nuclear area B-score, replicate 1: 0.0121

AhcyL2 [DRSC14107]
- droplet/nuclear area B-score, replicate 1: 0.302

CG2574 [DRSC19862]
- droplet/nuclear area B-score, replicate 1: 3.31

His4:CG33883 + His4:CG33889 + His4:CG33899 + 20 more [DRSC21268]
- droplet/nuclear area B-score, replicate 1: 1.72

Pdh [DRSC11249]
- droplet/nuclear area B-score, replicate 1: -0.197

Or43b [DRSC07486]
- droplet/nuclear area B-score, replicate 1: 0.945

Next part, starting with the last 2 of the part before.
Pdh [DRSC11249]
- droplet/nuclear area B-score, replicate 1: -0.197

Or43b [DRSC07486]
- droplet/nuclear area B-score, replicate 1: 0.945

CG3168 [DRSC18287]
- droplet/nuclear area B-score, replicate 1: -0.381

Fibp [DRSC11031]
- droplet/nuclear area B-score, replicate 1: -0.711

bif [DRSC18901]
- droplet/nuclear area B-score, replicate 1: -1.6

bif [DRSC20313]
- droplet/nuclear area B-score, replicate 1: -0.0461

CG32809 [DRSC18507]
- droplet/nuclear area B-score, replicate 1: 7.69

CG32809 [DRSC18562]
- droplet/nuclear area B-score, replicate 1: -0.126

CG32809 [DRSC18592]
- droplet/nuclear area B-score, replicate 1: -2.15

PolG1 [DRSC03621]
- droplet/nuclear area B-score, replicate 1: -0.752

stan [DRSC05234]
- droplet/nuclear area B-score, replicate 1: -0.875

stan [DRSC07697]
- droplet/nuclear area B-score, replicate 1: -0.359

CG7806 [DRSC03071]
- droplet/nuclear area B-score, replicate 1: -0.58

Amun [DRSC19847]
- droplet/nuclear area B-score, replicate 1: 0.121

mgr [DRSC16099]
- droplet/nuclear area B-score, replicate 1: 0.0703

CG9676 [DRSC20204]
- droplet/nuclear area B-score, replicate 1: 0.349

Aasdh [DRSC03467]
- droplet/nuclear area B-score, replicate 1: -0.182

CG1265 [DRSC08288]
- droplet/nuclear area B-score, replicate 1: -0.211

Sln [DRSC07133]
- droplet/nuclear area B-score, replicate 1: -0.157

snoRNA:U31:54Ec + snoRNA:snR38:54Eb + snoRNA:U27:54Eb + 8 more [DRSC06458]
- droplet/nuclear area B-score, replicate 1: 0.0661

Prp6 [DRSC10724]
- droplet/nuclear area B-score, replicate 1: 0.0536

Prp6 [DRSC21773]
- droplet/nuclear area B-score, replicate 1: 0.384

CR9337 [DRSC03212]
- droplet/nuclear area B-score, replicate 1: -0.846

mri [DRSC08259]
- droplet/nuclear area B-score, replicate 1: 0.474

REPTOR [DRSC14626]
- droplet/nuclear area B-score, replicate 1: 0.0152

Fhos [DRSC08943]
- droplet/nuclear area B-score, replicate 1: 0.0048

Fhos [DRSC10545]
- droplet/nuclear area B-score, replicate 1: -1.14

Fhos [DRSC10546]
- droplet/nuclear area B-score, replicate 1: 1.32

Fhos [DRSC10547]
- droplet/nuclear area B-score, replicate 1: 0.823

Pvf1 [DRSC20024]
- droplet/nuclear area B-score, replicate 1: -0.0438

Send1 [DRSC00482]
- droplet/nuclear area B-score, replicate 1: 0.312

sd [DRSC20370]
- droplet/nuclear area B-score, replicate 1: -0.994

sd [DRSC21712]
- droplet/nuclear area B-score, replicate 1: -0.837
